Laboratory results: patent US8685636B2, “Heparin-insensitive method for determining direct coagulation factor inhibitors” (Siemens Healthcare Diagnostics Products GmbH, priority 2011, dated 2014)
For at least one compound, name, drawing or mass did not settle the structure.

Target: bovine thrombin (Bos taurus, UniProt P00735)
Assay: Chromogenic thrombin inhibition assay in plasma samples pretreated with oxidizing agent (sodium hypochlorite) and neutralizing agent (HCl)
Type: biochemical
Conditions: for ΔA/min (conversion of chromogenic thrombin substrate): pretreated sample, plasma without inhibitor 2623
Procedure: Various amounts of direct coagulation factor inhibitors (rivaroxaban as direct factor Xa inhibitor, argatroban as direct thrombin inhibitor) or indirect coagulation factor inhibitors (fondaparinux pentasaccharide [Arixtra®], high-molecular-weight heparin [HMWH]) were added to normal human plasma.
20 μl of plasma sample were mixed with 10 μl of a 0.1% strength hypochlorous acid (sodium hypochlorite) as oxidizing agent, and the reaction mix was incubated at +37° C. for 30 seconds. Subsequently, 10 μl of a 0.1% strength hydrochloric acid solution were added to the reaction mix to neutralize the oxidizing agent, and the reaction mix was incubated at +37° C. for 30 seconds. Subsequently, 140 μl of thrombin reagent (bovine thrombin, 6 U/ml) were added to the reaction mix, and the reaction mix was incubated at +37° C. for 30 seconds. Subsequently, 50 μl of a chromogenic thrombin substrate (Tos-L-Gly-Pro-Arg-ANBA-isopropylamide, 4 mmol/l) were added to the reaction mix, and conversion of the substrate (in ΔA/time) was determined at a wavelength of 405 nm in an automated coagulation measurement instrument (BCS® System, Siemens Healthcare Diagnostics).
The reduction in substrate conversion compared to plasma without any inhibitors correlates with the amount of inhibitor in the sample.

SMILES: CO[C@H]1O[C@H](COS(=O)(=O)O)[C@@H](O[C@@H]2O[C@@H](C(=O)O)[C@@H](O[C@H]3O[C@H](COS(=O)(=O)O)[C@@H](O[C@@H]4O[C@H](C(=O)O)[C@@H](O[C@H]5O[C@H](COS(=O)(=O)O)[C@@H](O)[C@H](O)[C@H]5NS(=O)(=O)O)[C@H](O)[C@H]4O)[C@H](OS(=O)(=O)O)[C@H]3NS(=O)(=O)O)[C@H](O)[C@H]2OS(=O)(=O)O)[C@H](O)[C@H]1NS(=O)(=O)O [Arixtra, fondaparinux]
- ΔA/min (conversion of chromogenic thrombin substrate) (1 μg/ml in normal human plasma): 2480 ΔA/min
- ΔA/min (conversion of chromogenic thrombin substrate) (4 μg/ml in normal human plasma): 2579 ΔA/min
- effect of pretreatment of the samples on the inhibition of thrombin by the substance (in words) (pretreatment with hypochlorite then HCl): almost complete elimination
